# Source: US11026426B2, “Oxadiazole and phenol derivatives as antibacterial and/or herbicidal agents” (NORTHERN ILLINOIS RESEARCH FOUNDATION, priority 2017, dated 2021)
# By UniProt entry, the sequences of proteins in these tests, tags left out. Where a name states a change or a piece, a line headed by the entry shows the natural chain unless it says otherwise.
# UniProt Q743W5: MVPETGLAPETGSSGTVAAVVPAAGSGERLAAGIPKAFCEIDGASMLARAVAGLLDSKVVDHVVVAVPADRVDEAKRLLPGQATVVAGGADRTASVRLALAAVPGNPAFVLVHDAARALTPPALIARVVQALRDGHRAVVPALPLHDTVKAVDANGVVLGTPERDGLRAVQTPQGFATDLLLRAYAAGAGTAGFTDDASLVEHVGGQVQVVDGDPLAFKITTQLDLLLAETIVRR
# Some entries share one result that the patent states for a list of compounds.
# Target: Mycobacterium paratuberculosis IspD (MpIspD) (Mycolicibacterium paratuberculosis, UniProt Q743W5)
# Test: Thermal shift assay against MpIspD
# Type: binding
row,SMILES,MpIspD thermal shift (positive shift)
1,"c1ccc(-c2nnc(-c3cc4ccccc4[nH]3)o2)cc1 [HGN-208, 2-(1H-indol-2-yl)-5-phenyl-1,3,4-oxadiazole]",≥ 0.8 °C
2,"FC(F)(F)c1nnc(-c2cc3ccccc3[nH]2)o1 [HGN-211, 2-(1H-indol-2-yl)-5-(trifluoromethyl)-1,3,4-oxadiazole]",≥ 0.8 °C
3,"Clc1cccc(-c2nnc(-c3cc4ccccc4[nH]3)o2)c1 [HGN-241, 2-(3-chlorophenyl)-5-(1H-indol-2-yl)-1,3,4-oxadiazole]",≥ 0.8 °C
